No constants are given. Whether binding was seen depends on the method and setting. Some entries that bind do so weakly or less than the wild type. Sequences can lack the tags named with a protein.
Tests used:
[1] = target: Ross River virus (RRV, T48) structural proteins on infected cells (Ross River virus) (UniProt P08491); test: flow cytometry on infected 3T3 cells, 1 µg/ml
[2] = target: Ross River virus (RRV, T48) structural proteins on infected cells (Ross River virus) (UniProt P08491); test: flow cytometry of infected 3T3 cells, 1 µg/ml protein, anti-mouse IgG Alexa Fluor 647

Chains of the proteins cited; added tags and fusions are not shown. Lines headed by an entry give the natural chain unless they say otherwise; changes in a name come on top.
UniProt P08491: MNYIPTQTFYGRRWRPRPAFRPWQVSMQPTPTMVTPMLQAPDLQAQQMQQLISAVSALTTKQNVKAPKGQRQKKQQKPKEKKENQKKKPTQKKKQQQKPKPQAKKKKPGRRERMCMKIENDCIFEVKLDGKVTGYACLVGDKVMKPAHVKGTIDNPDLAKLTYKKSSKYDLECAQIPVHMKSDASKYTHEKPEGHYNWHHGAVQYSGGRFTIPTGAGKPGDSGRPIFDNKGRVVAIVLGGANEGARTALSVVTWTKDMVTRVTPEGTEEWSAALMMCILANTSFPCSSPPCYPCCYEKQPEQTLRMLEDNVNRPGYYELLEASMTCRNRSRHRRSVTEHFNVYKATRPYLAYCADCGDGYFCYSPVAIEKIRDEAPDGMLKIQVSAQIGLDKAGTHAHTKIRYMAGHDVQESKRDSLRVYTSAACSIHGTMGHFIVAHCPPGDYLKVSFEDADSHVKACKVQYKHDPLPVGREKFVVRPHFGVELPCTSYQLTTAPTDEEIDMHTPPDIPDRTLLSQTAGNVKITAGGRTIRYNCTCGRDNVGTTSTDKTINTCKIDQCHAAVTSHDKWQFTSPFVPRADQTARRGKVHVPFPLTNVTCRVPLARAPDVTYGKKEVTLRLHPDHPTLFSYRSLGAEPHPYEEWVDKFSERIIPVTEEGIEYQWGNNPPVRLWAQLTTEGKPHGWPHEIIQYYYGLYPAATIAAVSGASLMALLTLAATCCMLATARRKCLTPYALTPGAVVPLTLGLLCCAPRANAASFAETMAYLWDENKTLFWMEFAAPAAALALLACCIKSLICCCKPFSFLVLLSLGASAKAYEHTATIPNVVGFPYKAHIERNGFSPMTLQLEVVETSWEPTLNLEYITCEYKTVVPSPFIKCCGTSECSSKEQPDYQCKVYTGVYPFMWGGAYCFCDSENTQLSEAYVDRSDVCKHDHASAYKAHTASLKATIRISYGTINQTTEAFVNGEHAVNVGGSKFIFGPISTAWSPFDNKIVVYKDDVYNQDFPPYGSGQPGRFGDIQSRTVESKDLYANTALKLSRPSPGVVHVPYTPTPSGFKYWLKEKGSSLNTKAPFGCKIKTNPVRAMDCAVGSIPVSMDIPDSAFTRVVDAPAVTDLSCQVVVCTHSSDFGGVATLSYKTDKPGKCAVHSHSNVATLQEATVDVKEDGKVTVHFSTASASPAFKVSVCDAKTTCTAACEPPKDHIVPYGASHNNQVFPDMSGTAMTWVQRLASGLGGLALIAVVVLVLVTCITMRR

B1: Mxra8-Fc (extracellular domain of mouse Mxra8 fused to mouse IgG2b Fc) (Fc fusion)
chain: SGPSGTAAASSSLVSESVVSLAAGTQAVLRCQSPRMVWTQDRLHDRQRVVHWDLSGGPGSQRRRLVDMYSAGEQRVYEPRDRDRLLLSPSAFHDGNFSLLIRAVDRGDEGVYTCNLHHHYCHLDESLAVRLEVTEDPLLSRAYWDGEKEVLVVAHGAPALMTCINRAHVWTDRHLEEAQQVVHWDRQLPGVSHDRADRLLDLYASGERRAYGPPFLRDRVSVNTNAFARGDFSLRIDELERADEGIYSCHLHHHYCGLHERRVFHLQVTEPAFEPPARASPGNGSGHSSAPSPDPTLTRGHSIINVIVPEDHTHPSGPISTINPCPPCKECHKCPAPNLEGGPSVFIFPPNIKDVLMISLTPKVTCVVVDVSEDDPDVQISWFVNNVEVHTAQTQTHREDYNSTIRVVSTLPIQHQDWMSGKEFKCKVNNKDLPSPIERTISKIKGLVRAPQVYILPPPAEQLSRKDVSLTCLVVGFNPGDISVEWTSNGHTEENYKDTAPVLDSDGSYFIYSKLNMKTSKWEKTDSFSCNVRHEGLKNYYLKKTISRSPGK
Question: What does the source list for B1?
Answer: binding [1]: binds; binding [2]: binds
